No constants are given. Whether binding was seen depends on the method and setting. For some of these results: In cells and extracts the contact can be indirect. For some of these results: Binding calls can cover weak binding; strength is not graded here.

The chains behind the UniProt entries cited, without tags or fusion partners. Where a name states a change or a piece, a line headed by the entry shows the natural chain unless it says otherwise.
UniProt Q9C7M2: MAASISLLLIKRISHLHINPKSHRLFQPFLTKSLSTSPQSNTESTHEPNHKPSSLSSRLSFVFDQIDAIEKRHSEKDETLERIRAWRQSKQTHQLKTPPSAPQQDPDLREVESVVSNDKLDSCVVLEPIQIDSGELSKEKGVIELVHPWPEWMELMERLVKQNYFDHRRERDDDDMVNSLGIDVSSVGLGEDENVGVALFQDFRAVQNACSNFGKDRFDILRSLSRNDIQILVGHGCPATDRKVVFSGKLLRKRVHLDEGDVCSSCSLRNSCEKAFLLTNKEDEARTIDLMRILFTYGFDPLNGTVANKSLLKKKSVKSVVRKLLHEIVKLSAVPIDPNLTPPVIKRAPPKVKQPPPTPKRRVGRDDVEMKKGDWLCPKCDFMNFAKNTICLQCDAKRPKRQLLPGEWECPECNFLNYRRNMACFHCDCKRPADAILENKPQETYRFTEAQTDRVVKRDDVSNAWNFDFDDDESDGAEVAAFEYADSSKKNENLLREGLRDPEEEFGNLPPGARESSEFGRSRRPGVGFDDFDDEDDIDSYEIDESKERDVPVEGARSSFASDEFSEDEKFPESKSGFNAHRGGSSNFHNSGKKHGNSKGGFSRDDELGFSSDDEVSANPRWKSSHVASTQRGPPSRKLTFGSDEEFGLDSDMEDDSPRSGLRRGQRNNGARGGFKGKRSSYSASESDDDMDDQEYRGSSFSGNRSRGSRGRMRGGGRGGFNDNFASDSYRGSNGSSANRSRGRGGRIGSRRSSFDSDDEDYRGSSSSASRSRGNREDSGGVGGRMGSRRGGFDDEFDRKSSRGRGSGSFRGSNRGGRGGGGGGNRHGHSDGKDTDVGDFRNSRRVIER

Test [1] has as its target OZ2 (Arabidopsis). The test is described as follows: two-hybrid; Gal4 AD (pGADT7GW) and BD (pGBKT7GW) fusions in mated PJ69-4a/PJ69-4α diploid yeast; growth on -Leu -Trp -His -Ade plates, dilution spots, imaged after three days at 30°C; empty vectors as negative controls.
Test [2] addresses OZ2 (Arabidopsis) (UniProt Q9C7M2). The test is described as follows: split reporter; BiFC with nYFP and cYFP fusions (pEXSG-nYFP, pEXSG-cYFP) transiently co-expressed with P19 in agroinfiltrated N. benthamiana leaves; fluorescence microscopy 2-3 days after infiltration.

B1: WTF9 (protein, UniProt Q9ZUZ6 25-387)
chain: VDVYMKWKRDPYFDNIEHILRSSQLKSVVSLKNCIVQEPNRCIPISAISKKTRQFDVSTKIAHFLRKFPSIFEEFVGPEYNLPWFRLTPEATELDRQERVVYQTSADDLRDRLKKLILMSKDNVLPLSIVQGMKWYLGLPDDYLQFPDMNLDSSFRFVDMEDGVKGLAVDYNGGDKVLSVLQKNAMKKRRGEVSLEEIEFPLFPSKGCRLRVKIEDWLMEFQKLPYVSPYDDYSCLDPSSDIAEKRVVGFLHELLCLFVEHSAERKKLLCLKKHFGLPQKVHKAFERHPQIFYLSMKNKTCTAILREPYRDKASVETHPVLGVRKKYIQLMKNSELILKSRRNSFGFRDEGVVDKDLDLDFEG
Turning to B1, the binding entry in the test with OZ2 (Arabidopsis) [1] and in the test with OZ2 (Arabidopsis) [2] was “no binding” in each case.

B2: mTERF15 (protein, UniProt Q9C6A1 26-445)
chain: SSRILTPINQSHYRKRILLANLLQRYGFPPSSLQHFLSRNNHLLNSDLVETEISLGILLSLKIPQKSLVSLISDCPNVLRSEFLRKWRVPLSNCGKHGVVSSSAIKSVLEHSSRIGIGPDKFNECVRVLKSLGFCDSTVSRILSSFPGVLLVNEIEIRRKIEFLVGIGIARDNIERFFHVFPEVLGIGTETRLKPLLDEFMKMGFSKDDVKKEIAREPRVLGLELGELPRCLELINTLKCREVIRVSIISEGAFRAGFEVKLRVDCLCKYGLIRRDAFKVVWKEPRVILYEIEDIEKKIEFLTNRMGFHINCLADVPEYLGVNLQKQIVPRYNVIDYLKLKGGLGCDIGLKGLIKPSMKRFYNLYVMPYPECERIFGKRKENVRVNKRHPAGLWKLMKPPSNLTTKEDVQNMKSFIESLA
Consider B2, for which the binding entry in the test with OZ2 (Arabidopsis) [2] is listed as “no binding”.

B3: MAT2 (protein, UniProt Q9FJR9 13-735)
chain: WLKPSSTYTNVYCFVTNPPLISNPNNGSAIFRYLSYFAPQQRRQQQQAPDPDDPANLLKEDGVSLCSQMWLENFKEPDKTATNLTSYLRRFELWVLAYQKVCCDELGAYVPRSSIQRSALENLLALRNSVLDDRFKWGSRLDFYIKSPRDKTDYESLSKRKIKAILTTTQPTPFQDRIVQEVLLMILEPIYESRFSQKSFAFRPGRTAHTVLRVIRRNFAGYLWYVKGDLSVVLDGMKVGFVISSLMRDVRDKKVIDLIKSALVTPVVTSKVEDGEKKKTKKRKYQKKRVLAEDEPKPDPYWLETFFGFAPEEAGKSPQWGHCGILSPLLVNVCLDELDRWMETKVKDFYRPSKSDVIWNNPEGEADQGNTSWPEFVPTSGPDKTRKMDYVRYGGHILIGVRGPRADAATLRKELIEFVDQKYMLRLDNENLPIEHITKGIMFLDHVLCRRVVYPTLRYTATGGKIISEKGVGTLLSVTASLKQCIKQFRKLLFIKGDRDPDPQPCFRMFHATQAHTNNQMNKFLTTIAEWYRFADNRKKIVNFCSYIIRGSLAKLYAAKYKLRSRAKVYKFANRNLSLPLLQKKGQSPEYQNLLRMGLAESVDGLVYTRMSLVPETDYSPFPGNWRPEHEKFLIEYLTLDEPKTLEEQKRFIREKGLVSPQDYTSMLVWNYKRNAIPMDQVSILKDQPFLLGSSSTYNRDNDDQKNKEEDEDSEDGLRIARM
Consider B3, for which the binding result with OZ2 (Arabidopsis) [2] was “binds”.

B4: mTERF15 (protein, UniProt Q9C6A1 1-445)
chain: MASKLKTFINLRDYPITLFNQIRSLSSRILTPINQSHYRKRILLANLLQRYGFPPSSLQHFLSRNNHLLNSDLVETEISLGILLSLKIPQKSLVSLISDCPNVLRSEFLRKWRVPLSNCGKHGVVSSSAIKSVLEHSSRIGIGPDKFNECVRVLKSLGFCDSTVSRILSSFPGVLLVNEIEIRRKIEFLVGIGIARDNIERFFHVFPEVLGIGTETRLKPLLDEFMKMGFSKDDVKKEIAREPRVLGLELGELPRCLELINTLKCREVIRVSIISEGAFRAGFEVKLRVDCLCKYGLIRRDAFKVVWKEPRVILYEIEDIEKKIEFLTNRMGFHINCLADVPEYLGVNLQKQIVPRYNVIDYLKLKGGLGCDIGLKGLIKPSMKRFYNLYVMPYPECERIFGKRKENVRVNKRHPAGLWKLMKPPSNLTTKEDVQNMKSFIESLA
As for B4, the binding result with OZ2 (Arabidopsis) [1] was “no binding”.

B5: RUG3 (protein, UniProt Q9FJG9 23-445)
chain: RSGGGANTKVPILYTSPDIDSDPVTLQLFSWGRGASGQLGGGIEEIRMYPSPVANLLFRSDQSFSLAQTPGRIDADSSSFRIGISCGLFHSGLTIDGDLWIWGKGDGGRLGFGQENSVFVPNLNPLFEEHSIRCIALGGLHSVALTHQGDVFTWGYGGFGALGHKVYTRELVPRRVDDSWDCKISAIATSGTHTAAITESGELYMWGREEGDGRLGLGPGRGPNEGGGLSVPSKVKALTVPVASVSCGGFFTMALTKEGQLWNWGANSNYELGRGDNLGGWEPMPVPSLEGVRITQIACGGYHSLALTEEGKVLSWGHGGHGQLGSSSLRNQKVPTEIEALADKKIVFIASGGSSSAAITDGGELWMWGNAKDFQLGVPGLPEIQTTPVEVNFLTEEDECQPHKVISISIGASHALCLVSRSP
Consider B5, for which the binding entry with OZ2 (Arabidopsis) [1] and in the test with OZ2 (Arabidopsis) [2] was “no binding” each time.
